For some of these results: Expression grades refer to the transcript from which the peptide derives; gene names, where given, were looked up from the sequence.
Assays:
Parameters in all cases: species or system human
[1] = system: HLA-A*24 molecules of primary tumors; assay: Identification and relative LC-MS quantitation of HLA-A*24 tumor-associated peptides presented on tissue samples (XPRESIDENT presentation profiles); conditions: for ENTITIES: Table 9A: selected HLA-A*24-binding tumor-associated peptides, cancer entities on which the peptide was found presented
[2] = system: source genes of selected peptides; assay: Target coverage of source genes in tumor entities based on TCGA Research Network data; conditions: over-expressed = more than 2-fold above the highest 75% percentile of normal organs; for Target coverage, over-expression category of source gene, BLCA (N = 408): Bladder urothelial carcinoma; for Target coverage, over-expression category of source gene, CESC (N = 307): Cervical squamous cell carcinoma and endocervical adenocarcinoma; for Target coverage, over-expression category of source gene, HNSC (N = 521): Head and neck squamous cell carcinoma; for Target coverage, over-expression category of source gene, DLBC (N = 48): Lymphoid neoplasm diffuse large B-cell lymphoma; for Target coverage, over-expression category of source gene, MESO (N = 87): Mesothelioma
[3] = system: source genes of selected peptides; assay: Expression profiling of source genes by in-house RNAseq, tumor vs normal tissues (target coverage); conditions: for Target coverage, over-expression of source gene, AML: AML (N = 7); for Target coverage, over-expression of source gene, AML / Target coverage, over-expression of source gene, BRCA / Target coverage, over-expression of source gene, CLL / Target coverage, over-expression of source gene, CRC / Target coverage, over-expression of source gene, GB / Target coverage, over-expression of source gene, HCC / Target coverage, over-expression of source gene, OC / Target coverage, over-expression of source gene, OSCAR / Target coverage, over-expression of source gene, PC / Target coverage, over-expression of source gene, RCC / Target coverage, over-expression of source gene, SCLC / Target coverage, over-expression of source gene, pNSCLC: share of tumors with more than 1.5-fold higher expression than highest relevant normal tissue, in-house RNASeq; for Target coverage, over-expression of source gene, BRCA: BRCA (N = 10); for Target coverage, over-expression of source gene, CLL: CLL (N = 10); for Target coverage, over-expression of source gene, CRC: CRC (N = 20); for Target coverage, over-expression of source gene, GB: GB (N = 24); for Target coverage, over-expression of source gene, HCC: HCC (N = 15); for Target coverage, over-expression of source gene, OC: OC (N = 12); for Target coverage, over-expression of source gene, OSCAR: OSCAR (N = 11); for Target coverage, over-expression of source gene, PC: PC (N = 26); for Target coverage, over-expression of source gene, RCC: RCC (N = 10); for Target coverage, over-expression of source gene, SCLC: SCLC (N = 10); for Target coverage for source genes of selected peptides, GBC_CCC (N = 10): gallbladder adenocarcinoma and cholangiocarcinoma; for Target coverage for source genes of selected peptides, GBC_CCC (N = 10) / Target coverage for source genes of selected peptides, GC (N = 11) / Target coverage for source genes of selected peptides, HNSCC (N = 10) / Target coverage for source genes of selected peptides, MEL (N = 10) / Target coverage for source genes of selected peptides, NHL (N = 10) / Target coverage for source genes of selected peptides, PCA (n = 10) / Target coverage for source genes of selected peptides, UBC (N = 10) / Target coverage for source genes of selected peptides, UTC (N = 10): share of tumors with more than 1.5-fold higher expression than the highest-expressing relevant normal tissue, in-house RNAseq; for Target coverage for source genes of selected peptides, GC (N = 11): gastric cancer; for Target coverage for source genes of selected peptides, HNSCC (N = 10): head and neck small cell carcinoma; for Target coverage for source genes of selected peptides, MEL (N = 10): melanoma; for Target coverage for source genes of selected peptides, NHL (N = 10): non-Hodgkin lymphoma; for Target coverage, over-expression of source gene, pNSCLC: pNSCLC (N = 11); for Target coverage for source genes of selected peptides, PCA (n = 10): prostate cancer and benign prostate hyperplasia; for Target coverage for source genes of selected peptides, UBC (N = 10): urinary bladder cancer; for Target coverage for source genes of selected peptides, UTC (N = 10): uterine cancer

Row | Substance | Target coverage, over-expression category of source gene, BLCA (N = 408) [2] | Target coverage, over-expression category of source gene, CESC (N = 307) [2] | Target coverage, over-expression category of source gene, HNSC (N = 521) [2] | Target coverage, over-expression category of source gene, DLBC (N = 48) [2] | Target coverage, over-expression of source gene, AML [3] | Target coverage, over-expression of source gene, BRCA [3] | Target coverage, over-expression of source gene, CLL [3] | Target coverage, over-expression of source gene, CRC [3] | Target coverage, over-expression of source gene, GB [3] | Target coverage, over-expression of source gene, HCC [3] | Target coverage, over-expression of source gene, OC [3] | Target coverage, over-expression of source gene, OSCAR [3] | Target coverage, over-expression of source gene, PC [3] | Target coverage, over-expression of source gene, RCC [3] | Target coverage, over-expression of source gene, SCLC [3] | Target coverage for source genes of selected peptides, GBC_CCC (N = 10) [3] | Target coverage for source genes of selected peptides, GC (N = 11) [3] | Target coverage for source genes of selected peptides, MEL (N = 10) [3] | Target coverage for source genes of selected peptides, NHL (N = 10) [3] | Target coverage, over-expression of source gene, pNSCLC [3] | also measured
1 | 348: peptide found in FANCD2 (gene looked up) (IYLEHTESI; listed as Homo sapiens) [compound 348] | B (>=20% of tumors above the cutoff, but <50%) | A (>=50% of tumors above the cutoff) | C (>=5% of tumors above the cutoff, but <20%) | A (>=50% of tumors above the cutoff) | I (<19% over-expression = I) | I (<19% over-expression = I) | II (20-49% = II) | I (<19% over-expression = I) | I (<19% over-expression = I) | I (<19% over-expression = I) | I (<19% over-expression = I) | I (<19% over-expression = I) | I (<19% over-expression = I) | I (<19% over-expression = I) | I (<19% over-expression = I) | I (<19% over-expression = I) | I (<19% over-expression = I) | I (<19% over-expression = I) | I (<19% over-expression = I) | I (<19% over-expression = I) | ENTITIES [1]: GC, HCC, NSCLC; Target coverage, over-expression category of source gene, MESO (N = 87) [2]: C (>=5% of tumors above the cutoff, but <20%); Target coverage for source genes of selected peptides, HNSCC (N = 10) [3]: I (<19% over-expression = I); Target coverage for source genes of selected peptides, PCA (n = 10) [3]: I (<19% over-expression = I); Target coverage for source genes of selected peptides, UBC (N = 10) [3]: I (<19% over-expression = I); Target coverage for source genes of selected peptides, UTC (N = 10) [3]: I (<19% over-expression = I)
2 | 342: peptide found in APOBEC3B (gene looked up) (NYAFLHRTL; listed as Homo sapiens) [compound 342] | C (>=5% of tumors above the cutoff, but <20%) | C (>=5% of tumors above the cutoff, but <20%) | C (>=5% of tumors above the cutoff, but <20%) | C (>=5% of tumors above the cutoff, but <20%) | II (20-49% = II) | I (<19% over-expression = I) | I (<19% over-expression = I) | I (<19% over-expression = I) | I (<19% over-expression = I) | I (<19% over-expression = I) | II (20-49% = II) | III (50-69% = III) | I (<19% over-expression = I) | I (<19% over-expression = I) | I (<19% over-expression = I) | I (<19% over-expression = I) | I (<19% over-expression = I) | I (<19% over-expression = I) | I (<19% over-expression = I) | I (<19% over-expression = I) | Peptide Presentation on cancer entities ([1]; Table 9B: selected HLA-A*24 peptides, presentation on additional cancer entities): NSCLC; Target coverage for source genes of selected peptides, HNSCC (N = 10) [3]: I (<19% over-expression = I); Target coverage for source genes of selected peptides, PCA (n = 10) [3]: I (<19% over-expression = I); Target coverage for source genes of selected peptides, UBC (N = 10) [3]: II (20-49% = II); Target coverage for source genes of selected peptides, UTC (N = 10) [3]: I (<19% over-expression = I)
3 | 376: peptide found in RAD18 (gene looked up) (VYTPVASRQSL; listed as Homo sapiens) [compound 376] | C (>=5% of tumors above the cutoff, but <20%) | C (>=5% of tumors above the cutoff, but <20%) | C (>=5% of tumors above the cutoff, but <20%) | C (>=5% of tumors above the cutoff, but <20%) | I (<19% over-expression = I) | I (<19% over-expression = I) | I (<19% over-expression = I) | I (<19% over-expression = I) | II (20-49% = II) | I (<19% over-expression = I) | I (<19% over-expression = I) | I (<19% over-expression = I) | I (<19% over-expression = I) | I (<19% over-expression = I) | II (20-49% = II) | II (20-49% = II) | I (<19% over-expression = I) | I (<19% over-expression = I) | II (20-49% = II) | I (<19% over-expression = I) | ENTITIES [1]: HCC, NSCLC, GC, GB, PCA; Target coverage, over-expression category of source gene, MESO (N = 87) [2]: C (>=5% of tumors above the cutoff, but <20%); Target coverage for source genes of selected peptides, PCA (n = 10) [3]: I (<19% over-expression = I); Target coverage for source genes of selected peptides, UBC (N = 10) [3]: II (20-49% = II); Target coverage for source genes of selected peptides, UTC (N = 10) [3]: I (<19% over-expression = I)
